# Reference: article PMC8206213, “An L-2-hydroxyglutarate biosensor based on specific transcriptional regulator LhgR” (Nature Communications, 2021)
# Experiment: Emission and excitation spectra of purified LHGFR with or without 100 μM L-2-HG
# Assay type: binding
# Details: for Fluorescence intensity, emission spectrum: Suppl. Fig. 8b
structure (smiles),measurement,setting,value
"O=C(O)CC[C@H](O)C(=O)O [L-2-HG, L-2-Hydroxyglutarate]",fluorescence intensity,"Suppl. Fig. 4b excitation spectrum, 464 nm",1.24E+06
same,fluorescence intensity,"Suppl. Fig. 4b excitation spectrum, 466 nm",1.28E+06
same,fluorescence intensity,"Suppl. Fig. 4b excitation spectrum, 468 nm",1.33E+06
same,fluorescence intensity,"Suppl. Fig. 4b excitation spectrum, 470 nm",1.38E+06
same,fluorescence intensity,"Suppl. Fig. 4b excitation spectrum, 472 nm",1.42E+06
same,fluorescence intensity,"Suppl. Fig. 4b excitation spectrum, 474 nm",1.48E+06
same,fluorescence intensity,"Suppl. Fig. 4b excitation spectrum, 476 nm",1.55E+06
same,fluorescence intensity,"Suppl. Fig. 4b excitation spectrum, 478 nm",1.64E+06
same,fluorescence intensity,"Suppl. Fig. 4b excitation spectrum, 480 nm",1.75E+06
same,fluorescence intensity,"Suppl. Fig. 4b excitation spectrum, 482 nm",1.85E+06
same,fluorescence intensity,"Suppl. Fig. 4b excitation spectrum, 484 nm",1.81E+06
same,fluorescence intensity,"Suppl. Fig. 4b excitation spectrum, 486 nm",1.80E+06
same,fluorescence intensity,"Suppl. Fig. 4b excitation spectrum, 488 nm",1.77E+06
same,fluorescence intensity,"Suppl. Fig. 4b excitation spectrum, 490 nm",1.76E+06
same,fluorescence intensity,"Suppl. Fig. 4b excitation spectrum, 492 nm",1.76E+06
same,fluorescence intensity,"Suppl. Fig. 4b excitation spectrum, 494 nm",1.76E+06
same,fluorescence intensity,"Suppl. Fig. 4b excitation spectrum, 496 nm",1.78E+06
same,fluorescence intensity,"Suppl. Fig. 4b excitation spectrum, 498 nm",1.82E+06
same,fluorescence intensity,"Suppl. Fig. 4b excitation spectrum, 500 nm",1.91E+06
same,fluorescence intensity,"Suppl. Fig. 4b excitation spectrum, 502 nm",2.07E+06
same,fluorescence intensity,"Suppl. Fig. 4b excitation spectrum, 504 nm",2.54E+06
same,fluorescence intensity,"Suppl. Fig. 4b excitation spectrum, 506 nm",3.07E+06
same,fluorescence intensity,"Suppl. Fig. 4b excitation spectrum, 508 nm",3.50E+06
same,fluorescence intensity,"Suppl. Fig. 4b excitation spectrum, 510 nm",3.73E+06
same,fluorescence intensity,"Suppl. Fig. 4b excitation spectrum, 512 nm",3.95E+06
same,fluorescence intensity,"Suppl. Fig. 4b excitation spectrum, 514 nm",4.11E+06
same,fluorescence intensity,"Suppl. Fig. 4b excitation spectrum, 516 nm",4.18E+06
same,fluorescence intensity,"Suppl. Fig. 4b excitation spectrum, 518 nm",4.17E+06
same,fluorescence intensity,"Suppl. Fig. 4b excitation spectrum, 520 nm",4.10E+06
same,fluorescence intensity,"Suppl. Fig. 4b excitation spectrum, 522 nm",3.84E+06
same,fluorescence intensity,"Suppl. Fig. 4b excitation spectrum, 524 nm",3.31E+06
same,fluorescence intensity,"Suppl. Fig. 4b excitation spectrum, 526 nm",2.40E+06
same,fluorescence intensity,"Suppl. Fig. 4b excitation spectrum, 528 nm",1.42E+06
same,fluorescence intensity,"Suppl. Fig. 4b excitation spectrum, 530 nm",938111
same,fluorescence intensity,"Suppl. Fig. 4b excitation spectrum, 532 nm",663965
same,fluorescence intensity,"Suppl. Fig. 4b excitation spectrum, 534 nm",490736
same,fluorescence intensity,"Suppl. Fig. 8a emission spectrum, 450 nm",5095
same,fluorescence intensity,"Suppl. Fig. 8a emission spectrum, 452 nm",6551
same,fluorescence intensity,"Suppl. Fig. 8a emission spectrum, 454 nm",7935
same,fluorescence intensity,"Suppl. Fig. 8a emission spectrum, 456 nm",10250
same,fluorescence intensity,"Suppl. Fig. 8a emission spectrum, 458 nm",13637
same,fluorescence intensity,"Suppl. Fig. 8a emission spectrum, 460 nm",19717
same,fluorescence intensity,"Suppl. Fig. 8a emission spectrum, 462 nm",27208
same,fluorescence intensity,"Suppl. Fig. 8a emission spectrum, 464 nm",43597
same,fluorescence intensity,"Suppl. Fig. 8a emission spectrum, 466 nm",65029
same,fluorescence intensity,"Suppl. Fig. 8a emission spectrum, 468 nm",104204
same,fluorescence intensity,"Suppl. Fig. 8a emission spectrum, 470 nm",189423
same,fluorescence intensity,"Suppl. Fig. 8a emission spectrum, 472 nm",268857
same,fluorescence intensity,"Suppl. Fig. 8a emission spectrum, 474 nm",382782
same,fluorescence intensity,"Suppl. Fig. 8a emission spectrum, 476 nm",549226
same,fluorescence intensity,"Suppl. Fig. 8a emission spectrum, 478 nm",669159
same,fluorescence intensity,"Suppl. Fig. 8a emission spectrum, 480 nm",834094
same,fluorescence intensity,"Suppl. Fig. 8a emission spectrum, 482 nm",989680
same,fluorescence intensity,"Suppl. Fig. 8a emission spectrum, 484 nm",1.12E+06
same,fluorescence intensity,"Suppl. Fig. 8a emission spectrum, 486 nm",1.30E+06
same,fluorescence intensity,"Suppl. Fig. 8a emission spectrum, 488 nm",1.45E+06
same,fluorescence intensity,"Suppl. Fig. 8a emission spectrum, 490 nm",1.59E+06
same,fluorescence intensity,"Suppl. Fig. 8a emission spectrum, 492 nm",1.72E+06
same,fluorescence intensity,"Suppl. Fig. 8a emission spectrum, 494 nm",1.78E+06
same,fluorescence intensity,"Suppl. Fig. 8a emission spectrum, 496 nm",1.77E+06
same,fluorescence intensity,"Suppl. Fig. 8a emission spectrum, 498 nm",1.74E+06
same,fluorescence intensity,"Suppl. Fig. 8a emission spectrum, 500 nm",1.69E+06
same,fluorescence intensity,"Suppl. Fig. 8a emission spectrum, 502 nm",1.63E+06
same,fluorescence intensity,"Suppl. Fig. 8a emission spectrum, 504 nm",1.60E+06
same,fluorescence intensity,"Suppl. Fig. 8a emission spectrum, 506 nm",1.55E+06
same,fluorescence intensity,"Suppl. Fig. 8a emission spectrum, 508 nm",1.52E+06
same,fluorescence intensity,"Suppl. Fig. 8a emission spectrum, 510 nm",1.53E+06
same,fluorescence intensity,"Suppl. Fig. 8a emission spectrum, 512 nm",1.57E+06
same,fluorescence intensity,"Suppl. Fig. 8a emission spectrum, 514 nm",1.67E+06
same,fluorescence intensity,"Suppl. Fig. 8a emission spectrum, 516 nm",1.90E+06
same,fluorescence intensity,"Suppl. Fig. 8a emission spectrum, 518 nm",2.17E+06
same,fluorescence intensity,"Suppl. Fig. 8a emission spectrum, 520 nm",2.46E+06
same,fluorescence intensity,"Suppl. Fig. 8a emission spectrum, 522 nm",2.67E+06
same,fluorescence intensity,"Suppl. Fig. 8a emission spectrum, 524 nm",2.84E+06
same,fluorescence intensity,"Suppl. Fig. 8a emission spectrum, 526 nm",2.92E+06
same,fluorescence intensity,"Suppl. Fig. 8a emission spectrum, 528 nm",2.95E+06
same,fluorescence intensity,"Suppl. Fig. 8a emission spectrum, 530 nm",2.93E+06
same,fluorescence intensity,"Suppl. Fig. 8a emission spectrum, 532 nm",2.84E+06
same,fluorescence intensity,"Suppl. Fig. 8a emission spectrum, 534 nm",2.74E+06
same,fluorescence intensity,"Suppl. Fig. 8a emission spectrum, 536 nm",2.59E+06
same,fluorescence intensity,"Suppl. Fig. 8a emission spectrum, 538 nm",2.35E+06
same,fluorescence intensity,"Suppl. Fig. 8a emission spectrum, 540 nm",2.12E+06
same,fluorescence intensity,"Suppl. Fig. 8a emission spectrum, 542 nm",1.85E+06
same,fluorescence intensity,"Suppl. Fig. 8a emission spectrum, 544 nm",1.68E+06
same,fluorescence intensity,"Suppl. Fig. 8a emission spectrum, 546 nm",1.52E+06
same,fluorescence intensity,"Suppl. Fig. 8a emission spectrum, 548 nm",1.39E+06
same,fluorescence intensity,"Suppl. Fig. 8a emission spectrum, 550 nm",1.29E+06
same,fluorescence intensity,"Suppl. Fig. 8a emission spectrum, 552 nm",1.20E+06
same,fluorescence intensity,"Suppl. Fig. 8a emission spectrum, 554 nm",1.12E+06
same,fluorescence intensity,"Suppl. Fig. 8a emission spectrum, 556 nm",1.06E+06
same,fluorescence intensity,"Suppl. Fig. 8a emission spectrum, 558 nm",990780
same,fluorescence intensity,"Suppl. Fig. 8a emission spectrum, 560 nm",928516
same,fluorescence intensity,"Suppl. Fig. 8a emission spectrum, 562 nm",867560
same,fluorescence intensity,"Suppl. Fig. 8a emission spectrum, 564 nm",804813
same,fluorescence intensity,"Suppl. Fig. 8a emission spectrum, 566 nm",746699
same,fluorescence intensity,"Suppl. Fig. 8a emission spectrum, 568 nm",687421
same,fluorescence intensity,"Suppl. Fig. 8a emission spectrum, 570 nm",638245
same,fluorescence intensity,"Suppl. Fig. 8a emission spectrum, 572 nm",599635
same,fluorescence intensity,"Suppl. Fig. 8a emission spectrum, 574 nm",563432
same,fluorescence intensity,"Suppl. Fig. 8a emission spectrum, 576 nm",515238
same,fluorescence intensity,"Suppl. Fig. 8a emission spectrum, 578 nm",487979
same,fluorescence intensity,"Suppl. Fig. 8a emission spectrum, 580 nm",445688
same,"Fluorescence intensity, emission spectrum",emission 450 nm,4866
same,"Fluorescence intensity, emission spectrum",emission 452 nm,6706
same,"Fluorescence intensity, emission spectrum",emission 454 nm,7958
same,"Fluorescence intensity, emission spectrum",emission 456 nm,10880
same,"Fluorescence intensity, emission spectrum",emission 458 nm,15229
same,"Fluorescence intensity, emission spectrum",emission 460 nm,22038

# Where no unit stands, none is given here, and values compare only within one read-out.
